According to PubChem BioAssay AID1487 (National Center for Advancing Translational Sciences (NCATS), 2009):
Some of the results follow. These are further read-outs of the screen, such as a control signal, another cell line or another target. No call is given for them. The list favours compounds with an active or inconclusive main result. The note in brackets gives the kind of curve behind each potency; many fits are weak.

Test: qHTS Assay for Modulators of Lamin A Splicing
Details: HeLa LMNA splicing GFP/RFP minigene ratio, 48 h
Method in brief: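 S3 HeLa cells stably expressing lamin A-EGFP splicing minigene plus DsRed2, 600 cells/well, 48 h compound exposure at 37C. Laser-scanning cytometry; analysed as GFP (500-530 nm)/RFP (575-640 nm) total intensity ratio; 0.5% DMSO vehicle.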

[1] = measured here: RFP viability control channel
[2] = measured here: GFP splicing reporter channel

Compound | AC50 [1] | AC50 [2]
O=C(Nc1cc(C(F)(F)F)ccc1Cl)c1cc(-c2ccc3c(c2)OCCO3)on1 | 0.0126 µM [falling, full curve, poor fit] | 
COc1ccc(NC(=O)CCCCn2c(=O)[nH]c3ccccc3c2=O)cc1 | 0.112 µM [falling, full curve, poor fit] | 0.126 µM [falling, full curve, poor fit]
Cc1ccc(NC(=S)NNC(=O)CSc2nc3ccccc3c(=O)n2-c2ccc(C)cc2)cc1 | 35.5 µM [rising, single point] | 
Cc1cc(/C=N\NC(=O)c2cccs2)c(C)n1-c1ccc2ncccc2c1 |  | 35.5 µM [falling, single point]
O=C(NNc1ccccn1)C(=O)NNS(=O)(=O)c1ccc(Cl)cc1 |  | 22.4 µM [falling, partial curve, poor fit]
C=CCOc1c(Cl)cc(C2NC(=O)NC(C)=C2C(=O)OC)cc1Cl (stereo unspecified) | 35.5 µM [rising, single point] | 
Cc1[nH]c2ccccc2c1SCCNC(=O)c1ccc(S(=O)(=O)N2CCCC2)cc1 | 25.1 µM [rising, partial curve] | 12.6 µM [rising, partial curve, poor fit]
CCN(c1ccccc1)S(=O)(=O)c1ccc(C(C(=O)OC)C(=O)OC)c([N+](=O)[O-])c1 |  | 6.31 µM [rising, single point]
COc1ccccc1-n1cnc2cc(NCc3cccs3)ccc21 |  | 12.6 µM [falling, single point]
O=C(Cc1ccccc1)NCCc1csc2nc(-c3ccc(Cl)cc3)nn12 |  | 0.794 µM [rising, partial curve, poor fit]
CC(=O)N/C(=C/c1ccc(OS(=O)(=O)c2ccc(C)cc2)cc1)C(=O)NCCO | 3.55 µM [falling, full curve, poor fit] | 
CCOC(=O)c1c(NC(=O)CSc2nnc(C)s2)sc2c1CCC(CC)C2 (stereo unspecified) | 35.5 µM [rising, single point] | 
Cc1cccc(Oc2coc3cc(OC(=O)c4cncc(Br)c4)ccc3c2=O)c1 |  | 0.0501 µM [rising, full curve, poor fit]
COC(=O)c1ccc(CSc2nc3c([nH]c4ccccc43)c(=O)n2-c2ccc(OC)cc2)o1 | 8.91 µM [falling, partial curve] | 3.16 µM [falling, full curve]
Cc1ccc(S(=O)(=O)NC2c3cccc4cccc(c34)C2Sc2nncn2C)cc1 (stereo unspecified) | 10 µM [rising, partial curve, poor fit] | 
O=C(c1ccc(S(=O)(=O)N2CCCCCC2)cc1)N1CCC(CN2C(=O)c3cccc4cccc(c34)C2=O)CC1 | 7.08 µM [falling, partial curve] | 
O=C(c1cc(-c2ccncc2)nc2ccc(Cl)cc12)N1CCN(Cc2ccc3c(c2)OCO3)CC1 |  | 12.6 µM [falling, partial curve, poor fit]
CN(C)c1ccnc(-n2cccc2/C=N/OCc2ccc(F)cc2Cl)c1C#N | 15.8 µM [rising, single point] | 
CN1CCN(S(=O)(=O)c2cccc(C(=O)N3CCc4ccccc43)c2)CC1 | 14.1 µM [falling, partial curve] | 
CCOC(=O)c1ccc(N=c2sc(C(=O)OC)cc(=O)n2CCCN2CCOCC2)cc1 |  | 17.8 µM [falling, single point]
Cn1c(CC2Sc3ccccc3NC2=O)nnc1SCC(=O)c1ccc(Cl)cc1 (stereo unspecified) |  | 1.26 µM [falling, partial curve]
CCCCn1c(=S)[nH]c2ccc(N3CCOCC3)cc2c1=O | 3.98 µM [falling, full curve] | 
CC(C)c1nn2c(=O)cc(COC(=O)c3ccc(NC(=O)C4CCCCC4)cc3)nc2s1 | 5.62 µM [rising, full curve, poor fit] | 
Cc1cccc(NC(=S)/N=C(\N)Nc2nc(C)c3ccccc3n2)c1 | 15.8 µM [rising, single point] | 11.2 µM [rising, single point]
Cc1c(C)c2ccc(OS(C)(=O)=O)cc2oc1=O |  | 0.0224 µM [falling, full curve, poor fit]
COC(=O)c1cc(=O)n(CCc2ccc(OC)cc2)c(=Nc2ccc(F)c(Cl)c2)s1 | 35.5 µM [falling, single point] | 22.4 µM [falling, single point]
COCCN1CCN(Cc2nc(Cc3ccc(OC)c(OC)c3)no2)CC1 | 0.0282 µM [falling, full curve] | 0.0224 µM [falling, full curve, poor fit]
COc1cc2cc(C(=O)Nc3ccccc3)c(N)nc2cc1OC | 0.0158 µM [rising, full curve, poor fit] | 
CC1CC(C)CN(S(=O)(=O)c2ccc(C(C)(C)C)cc2)C1 (stereo unspecified) |  | 1.78 µM [falling, partial curve, poor fit]
CCCOc1ccc(S(=O)(=O)NNC(=O)c2cc3ccccc3o2)cc1 | 15.8 µM [rising, single point] | 

Another view of some results above.

| Compound | AC50 [1] | AC50 [2] |
| --- | --- | --- |
| O=C(c1ccc(S(=O)(=O)N2CCCCCC2)cc1)N1CCC(CN2C(=O)c3cccc4cccc(c34)C2=O)CC1 | 7.08 µM [falling, partial curve] |  |
| O=C(c1cc(-c2ccncc2)nc2ccc(Cl)cc12)N1CCN(Cc2ccc3c(c2)OCO3)CC1 |  | 12.6 µM [falling, partial curve, poor fit] |
